Laboratory results from PubChem BioAssay AID272 (DTP/NCI, 2004).
The list is a part of this screen's results and no random one: its compounds were picked by chemical class. Not every dose and run of a compound is shown. T/C is the treated group as % of the vehicle group. Some entries show no survivor count and are marked so; the dose need not have been tolerated. Schedule codes are those of the source, taken here to give the interval after Q, in days (D) or hours (H), and the number of doses after X. Where survival is the endpoint, this PubChem deposit counts one and a half times the control or more as active, and values a quarter to a half above the control carry no call in these data; other NCI protocols may use other cut-offs. Some entries were tested several times; the results are listed from low to high.

System: Lewis lung carcinoma i.m., BDF1 mice, T/C %
Experiment: NCI In Vivo Anticancer Drug Screen. Data for tumor model Lewis Lung Carcinoma (intramuscular) in B6D2F1 (BDF1) mice
Conditions: vehicle: saline
Procedure: The antitumor activity of compounds was measured in mice bearing transplantable tumors. Survival or tumor size were measured and the results are expressed as the measurement made in the treated group (T) divided by the measurement made in the vehicle treated control group (C). The tumor model used in this assay is Lewis Lung Carcinoma (intramuscular) in B6D2F1 (BDF1) mice

NC1CCCCC1.NP(=O)(O)N(CCCl)CCCl
T/C (T/C endpoint: mean tumor weight (est.), dose: 25.0 mg/kg/injection, schedule: Q04DX003 (ip), evaluation day not shown, higher T/C = larger tumour): 62 % of control [survivor count not shown] | T/C (T/C endpoint: mean tumor weight (est.), dose: 50.0 mg/kg/injection, schedule: Q04DX003 (ip), evaluation day not shown, higher T/C = larger tumour): 48 % of control [survivor count not shown] | T/C (T/C endpoint: mean tumor weight (est.), dose: 100.0 mg/kg/injection, schedule: Q04DX003 (ip), evaluation day not shown, higher T/C = larger tumour): 27 % of control [survivor count not shown] | T/C (T/C endpoint: mean tumor weight, dose: 25.0 mg/kg/injection, schedule: Q04DX003 (ip), evaluation day not shown, higher T/C = larger tumour): 70 % of control [survivor count not shown] | T/C (T/C endpoint: mean tumor weight, dose: 50.0 mg/kg/injection, schedule: Q04DX003 (ip), evaluation day not shown, higher T/C = larger tumour): 42 % of control [survivor count not shown] | T/C (T/C endpoint: median survival time, dose: 50.0 mg/kg/injection, schedule: Q04DX003 (ip), higher T/C = longer survival): 96 % of control [survivor count not shown] | T/C (T/C endpoint: median survival time, dose: 100.0 mg/kg/injection, schedule: Q04DX003 (ip), higher T/C = longer survival): 108 % of control [survivor count not shown]

ClCCN(CCCl)c1ccccc1
T/C (T/C endpoint: median survival time, dose: 6.25 mg/kg/injection, schedule: Q01DX011 (ip), higher T/C = longer survival): 120 % of control [survivor count not shown] | T/C (T/C endpoint: median survival time, dose: 12.5 mg/kg/injection, schedule: Q01DX011 (ip), higher T/C = longer survival): 117 % of control [survivor count not shown] | T/C (T/C endpoint: median survival time, dose: 25.0 mg/kg/injection, schedule: Q01DX011 (ip), higher T/C = longer survival): 120 % of control [survivor count not shown] | T/C (T/C endpoint: median survival time, dose: 50.0 mg/kg/injection, schedule: Q01DX011 (ip), higher T/C = longer survival): 92 % of control [survivor count not shown]

CC(C(=O)O)N(CCCl)CCCl (configuration not stated)
T/C (T/C endpoint: mean tumor weight, dose: 1.12 mg/kg/injection, schedule: Q01DX011 (ip), evaluation day not shown, higher T/C = larger tumour): 62 % of control [survivor count not shown] | T/C (T/C endpoint: mean tumor weight, dose: 2.25 mg/kg/injection, schedule: Q01DX011 (ip), evaluation day not shown, higher T/C = larger tumour): 57 % of control [survivor count not shown] | T/C (T/C endpoint: mean tumor weight, dose: 4.5 mg/kg/injection, schedule: Q01DX011 (ip), evaluation day not shown, higher T/C = larger tumour): 47 % of control [survivor count not shown] | T/C (T/C endpoint: median survival time, dose: 1.12 mg/kg/injection, schedule: Q01DX011 (ip), higher T/C = longer survival): 102 [survivor count not shown] and 110 % of control [survivor count not shown] | T/C (T/C endpoint: median survival time, dose: 2.25 mg/kg/injection, schedule: Q01DX011 (ip), higher T/C = longer survival): 90 [survivor count not shown] and 105 % of control [survivor count not shown] | T/C (T/C endpoint: median survival time, dose: 4.5 mg/kg/injection, schedule: Q01DX011 (ip), higher T/C = longer survival): 132 % of control [survivor count not shown]
